Measured values published in US7232852B2, “Photopolymerizable compositions that include alicyclic/aromatic dioxiranes and novel dioxiranyl tetraoxaspiro [5.5] undecanes” (Curators of the University of Missouri, priority 2002, dated 2007).

How the values were obtained:
[1] = Photoinitiated solution homopolymerization of BMOCHM-TOSU (FTIR, gel point); assay type: physicochemical; settings: 20 wt % in methylene chloride, 26° C., 923 mW/cm^2
Procedure: The effect of irradiation time on the photoinitated homopolymerization of BMOCHM-TOSU monomer (20 wt % in methylene chloride) was evaluated by gel point determination and by FTIR spectroscopy. Selected IR absorption bands in the reaction mixture characteristic of hydroxyl, carbonyl and oxirane groups were monitored as a function of irradiation time. […] These observations indicate the possibility of homopolymer formation. The mixture gelled 1.5 min post irradiation.

[2] = Photoinitiated solution copolymerization of BMOCHM-TOSU/EPON 825 (FTIR, gel point); settings: equimolar mixture (20 wt %) in methylene chloride, 25° C., EPON 916 cm^−1, BMOCHM-TOSU 905 cm^−1

CC1CC2OC2CC1CC1COC2(OC1)OCC(CC1CC3OC3CC1C)CO2 (stereo not shown) [BMOCHM, 3,9-bis[(4-methyl-7-oxabicyclo[4.1.0]hept-3-yl)methyl]-1,5,7,11-tetraoxaspiro[5,5]undecane]
IR absorbance region Rx/R0 ratio Carbonyl 1754–1744 cm^−1 ([1]; irradiation time 0.5 min): 1.06 | IR absorbance region Rx/R0 ratio Hydroxyl 352–3418 cm^−1 ([1]; irradiation time 0.5 min): 1.08 | IR absorbance region Rx/R0 ratio Oxirane 905 cm^−1 ([1]; irradiation time 0.5 min): 0.96 | IR absorbance region Rx/R0 ratio Carbonyl 1754–1744 cm^−1 ([1]; irradiation time 1 min): 1.14 | IR absorbance region Rx/R0 ratio Hydroxyl 352–3418 cm^−1 ([1]; irradiation time 1 min): 1.24 | IR absorbance region Rx/R0 ratio Oxirane 905 cm^−1 ([1]; irradiation time 1 min): 0.95 | IR absorbance region Rx/R0 ratio Carbonyl 1754–1744 cm^−1 ([1]; irradiation time 2 min): 1.45 | IR absorbance region Rx/R0 ratio Hydroxyl 352–3418 cm^−1 ([1]; irradiation time 2 min): 1.67 | IR absorbance region Rx/R0 ratio Oxirane 905 cm^−1 ([1]; irradiation time 2 min): 0.84 | IR absorbance region Rx/R0 ratio Carbonyl 1754–1744 cm^−1 ([1]; irradiation time 4 min): 3.22 | IR absorbance region Rx/R0 ratio Hydroxyl 352–3418 cm^−1 ([1]; irradiation time 4 min): 4.12 | IR absorbance region Rx/R0 ratio Oxirane 905 cm^−1 ([1]; irradiation time 4 min): 0.68 | IR absorbance region Rx/R0 ratio Carbonyl 1754–1744 cm^−1 ([1]; irradiation time 6 min): 3.23 | IR absorbance region Rx/R0 ratio Hydroxyl 352–3418 cm^−1 ([1]; irradiation time 6 min): 5.91 | IR absorbance region Rx/R0 ratio Oxirane 905 cm^−1 ([1]; irradiation time 6 min): 0.47 | IR absorbance region Rx/R0 ratio Carbonyl 1754–1744 cm^−1 ([1]; irradiation time 8 min): 2.64 | IR absorbance region Rx/R0 ratio Hydroxyl 352–3418 cm^−1 ([1]; irradiation time 8 min): 5.25 | IR absorbance region Rx/R0 ratio Oxirane 905 cm^−1 ([1]; irradiation time 8 min): 0.35 | Oxirane conversion ([2]; irradiation time 1 min): 5.5% | Oxirane conversion ([2]; irradiation time 2 min): 10.6% | Oxirane conversion ([2]; irradiation time 3 min): 14.0% | Oxirane conversion ([2]; irradiation time 4 min): 14.9% | Oxirane conversion ([2]; irradiation time 5 min): 21.8% | Oxirane conversion ([2]; irradiation time 6 min): 26.7% | Oxirane conversion ([2]; irradiation time 7 min): 26.9%
